Results deposited as PubChem BioAssay AID743454 (Peter MacCallum Cancer Centre, 2014).
Aim: 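Genes whose loss kills vorinostat-resistant colon cancer cells under vorinostat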 (primary screen). Cells: human HCT116-VR colon cancer cells, selected for vorinostat resistance. Knock-down reagent: siRNA pool against human genes, 40 nM siRNA pool. Time to read-out: vorinostat for 24 h, read-out about 72 h after transfection. Conditions: vorinostat at 2.5 µM final. Measured: 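Cell viability by CellTiter-Fluor and caspase 3/7 activity by luminescence, each scaled to mock wells per plate, duplicates averaged, then robust z-scored over all plates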. Scale: viability robust z-score: higher = more viable cells than screen typical; caspase robust z-score: higher = more caspase 3/7 activity than screen typical. Rule for the call: 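Hits are knock-downs in viability class RV1/RV2 or caspase class CA1/CA2, excluding ones that killed cells in the no-drug cell-count arm; hits then retested with single siRNAs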.
This is one part, drawn at random, of about 18,000 reagents. Over the whole deposit, 450 (2.5%) got an active call. 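Single biological run; no consistent viability z cut-off exists, so the class columns, not z-scores, define the calls.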 Entries without a mark were called inactive.

CD2 — viability hit class: no change; caspase hit class: no change; viability robust z-score: 0.64; caspase robust z-score: -0.9
DMRTA1 — viability hit class: no change; caspase hit class: no change; viability robust z-score: -0.42; caspase robust z-score: 0.78
HEATR4 — viability hit class: no change; caspase hit class: no change; viability robust z-score: 0.9; caspase robust z-score: 0.09
ADAMTS10 — viability hit class: no change; caspase hit class: no change; viability robust z-score: -1; caspase robust z-score: 4.16
GXYLT2 — viability hit class: no change; caspase hit class: no change; viability robust z-score: 0.68; caspase robust z-score: -0.66
SLC35A3 — viability hit class: no change; caspase hit class: no change; viability robust z-score: -1.05; caspase robust z-score: -0.6
RND3 — viability hit class: no change; caspase hit class: no change; viability robust z-score: 0.38; caspase robust z-score: 0.59
XAB2 — viability hit class: no change; caspase hit class: no change; viability robust z-score: -2.11; caspase robust z-score: -0.5
LGSN — viability hit class: no change; caspase hit class: no change; viability robust z-score: -0.04; caspase robust z-score: 1.06
SLC8A1 — viability hit class: no change; caspase hit class: no change; viability robust z-score: 0.5; caspase robust z-score: -0.33
DPM1 — viability hit class: no change; caspase hit class: no change; viability robust z-score: -0.03; caspase robust z-score: -0.34
UNC93A — viability hit class: no change; caspase hit class: no change; viability robust z-score: 1.06; caspase robust z-score: 0.24

In a second layout: results already given
GXYLT2
- viability hit class: no change
- caspase hit class: no change
- viability robust z-score: 0.68
- caspase robust z-score: -0.66

SLC35A3
- viability hit class: no change
- caspase hit class: no change
- viability robust z-score: -1.05
- caspase robust z-score: -0.6

RND3
- viability hit class: no change
- caspase hit class: no change
- viability robust z-score: 0.38
- caspase robust z-score: 0.59

More results follow.
MLLT10 — viability hit class: no change; caspase hit class: no change; viability robust z-score: 1.11; caspase robust z-score: 0.06
DDX53 — viability hit class: no change; caspase hit class: no change; viability robust z-score: -0.22; caspase robust z-score: 1.08
ARHGEF18 — viability hit class: no change; caspase hit class: no change; viability robust z-score: -0.82; caspase robust z-score: 0.74
CLEC14A — viability hit class: no change; caspase hit class: no change; viability robust z-score: -0.19; caspase robust z-score: 0.4
ANKRD20A2P — viability hit class: no change; caspase hit class: no change; viability robust z-score: 0.54; caspase robust z-score: -1.17
B3GNT7 — viability hit class: no change; caspase hit class: no change; viability robust z-score: -0.36; caspase robust z-score: 0.02
TRIP10 — viability hit class: no change; caspase hit class: no change; viability robust z-score: 2.79; caspase robust z-score: 0.79
CABLES1 — viability hit class: no change; caspase hit class: no change; viability robust z-score: -0.38; caspase robust z-score: -0.96
SUPT7L — viability hit class: no change; caspase hit class: no change; viability robust z-score: 0.23; caspase robust z-score: -1.01
SRBD1 — viability hit class: no change; caspase hit class: no change; viability robust z-score: -0.02; caspase robust z-score: 3.58
EVI2B — viability hit class: no change; caspase hit class: no change; viability robust z-score: -0.04; caspase robust z-score: 0.76
STRBP — viability hit class: no change; caspase hit class: no change; viability robust z-score: -0.4; caspase robust z-score: -0.14
PEDS1-UBE2V1 — viability hit class: no change; caspase hit class: no change; viability robust z-score: 1.52; caspase robust z-score: 0.34
RBM5 — viability hit class: no change; caspase hit class: no change; viability robust z-score: -0.11; caspase robust z-score: -0.02
LYPD4 — viability hit class: no change; caspase hit class: no change; viability robust z-score: 1.21; caspase robust z-score: -0.3
